According to the supplement of paper PMC10973195:
± gives the standard deviation of the averaged measurements. The list shows a part of the results. Values are raw readings; no control value is given beside them.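 A neuron, microglia and astrocyte co-culture models inflammatory neurodegeneration: bacterial LPS drives microglia-dependent neuron loss. Each compound was tested against DMSO vehicle wells on the same plates; BAY61-3606, a SYK inhibitor, was the reference neuroprotective control.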

Tested on: rat primary cerebellar neuron-glia coculture
Assay: necrotic cell count (DRAQ7+) per image field (cells per field); higher = more necrosis
Settings: LPS 0 ng/mL; 1 µM; treatment time 3 days
Procedure: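 Primary rat (P3-7) cerebellar neuron-glia cocultures in 384-well plates were treated at DIV7 with 1 uM compound, then with or without 100 ng/mL LPS 30 min later, for 3 days. At DIV10 live cells were stained with Hoechst 33342, NeuO (live neurons), IB4-AF594 (microglia) and DRAQ7 (necrotic cells) and imaged at 10x (4 fields per well, IN Cell Analyzer 6000). Cells were classified with Cellpose/CellProfiler plus a Random Trees classifier. Values are per-well mean counts per image field (raw, not min-max normalised) and the median microglial FormFactor per image. Three technical replicates per repeat across 4 biological repeats; DMSO and BAY61-3606 serve as controls.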

Row | Compound | necrotic cell count
1 | c1ccc(-c2ccc(CSc3nnc(-c4ccc5c(c4)OCO5)o3)cc2)cc1 | 94.5 ± 38
2 | O=C(c1cc(Cc2n[nH]c(=O)c3ccccc23)ccc1F)N1CCN(C(=O)C2CC2)CC1 | 75.3 ± 36
3 | O=C(/C=C/N1C[C@H]2C[C@@H]1CN2c1ccccn1)c1ccccc1O | 68.5 ± 14
4 | COc1cc2c(cc1OCCCN1CCCC1)N=C(N)C21CCC1 | 72.1 ± 32
5 | Cc1nc(C#Cc2cccnc2)cs1 | 82.6 ± 31
6 | CCn1c(-c2nonc2N)nc2ccccc21 | 52.4 ± 22
7 | CCc1nc(N)nc(N)c1-c1ccc(Cl)cc1 | 221 ± 63
8 | CCCCN1C[C@H](O)[C@@H](O)[C@H](O)[C@H]1CO | 88.7 ± 28
9 | CNC(=O)c1ccccc1Nc1cc(Nc2ccc(N3CCOCC3)cc2OC)ncc1C(F)(F)F | 65.5 ± 30
10 | CC(C)(C)c1cc(C(=O)Cn2c(=N)n(CCN3CCOCC3)c3ccccc32)cc(C(C)(C)C)c1O | 77.5 ± 24
11 | C[C@]12C=CC(=O)C=C1CC[C@H]1[C@@H]3C[C@@H](O)[C@](O)(C(=O)CO)[C@@]3(C)C[C@H](O)[C@@]12F | 298 ± 110
12 | Cc1cc(O)c(-c2ccc([C@@H](C)CN(C)C)cc2)c2c1[nH]c(=O)c1sccc12 | 426 ± 120
13 | NC1(Cc2ccc(Cl)cc2)CCN(c2ncnc3[nH]ccc23)CC1 | 87.1 ± 28
14 | COc1ccc(NS(=O)(=O)c2sc3ccc(Cl)cc3c2C)cc1N1CCNCC1 | 74.4 ± 35
15 | NC(=O)c1ccc(N(C(N)=O)c2c(F)cccc2F)nc1-c1ccc(F)cc1F | 79 ± 31
16 | CC[C@H]1[C@@H](O)[C@@H]2[C@H](CC[C@]3(C)[C@@H]([C@H](C)CCC(=O)O)CC[C@@H]23)[C@@]2(C)CC[C@@H](O)C[C@@H]12 | 73.4 ± 17
17 | CN(C(=O)c1ccccc1)c1ccc(C(O)(C(F)(F)F)C(F)(F)F)cc1 | 71.1 ± 26
18 | O=C(O)/C=C/c1ccc(O)c(O)c1 | 48.9 ± 34
19 | O=C(c1ccc(C(=O)N2CCC(N3CCCC3)CC2)c(Nc2ccccc2)c1)N1CCC(N2CCCC2)CC1 | 72.2 ± 24
20 | CN1[C@@H](CC(=O)c2ccccc2)CCC[C@H]1C[C@H](O)c1ccccc1 | 65 ± 18

Same assay, conditions: LPS 100 ng/mL; 1 µM; treatment time 3 days

Row | Compound | necrotic cell count
21 | c1ccc(-c2ccc(CSc3nnc(-c4ccc5c(c4)OCO5)o3)cc2)cc1 | 969 ± 420
22 | O=C(c1cc(Cc2n[nH]c(=O)c3ccccc23)ccc1F)N1CCN(C(=O)C2CC2)CC1 | 1020 ± 320
23 | O=C(/C=C/N1C[C@H]2C[C@@H]1CN2c1ccccn1)c1ccccc1O | 905 ± 300
24 | COc1cc2c(cc1OCCCN1CCCC1)N=C(N)C21CCC1 | 1000 ± 410
25 | Cc1nc(C#Cc2cccnc2)cs1 | 931 ± 510
26 | CCn1c(-c2nonc2N)nc2ccccc21 | 776 ± 250
27 | CCc1nc(N)nc(N)c1-c1ccc(Cl)cc1 | 172 ± 53
28 | CCCCN1C[C@H](O)[C@@H](O)[C@H](O)[C@H]1CO | 967 ± 420
29 | CNC(=O)c1ccccc1Nc1cc(Nc2ccc(N3CCOCC3)cc2OC)ncc1C(F)(F)F | 809 ± 400
30 | CC(C)(C)c1cc(C(=O)Cn2c(=N)n(CCN3CCOCC3)c3ccccc32)cc(C(C)(C)C)c1O | 904 ± 360
31 | C[C@]12C=CC(=O)C=C1CC[C@H]1[C@@H]3C[C@@H](O)[C@](O)(C(=O)CO)[C@@]3(C)C[C@H](O)[C@@]12F | 210 ± 49
32 | Cc1cc(O)c(-c2ccc([C@@H](C)CN(C)C)cc2)c2c1[nH]c(=O)c1sccc12 | 500 ± 150
33 | NC1(Cc2ccc(Cl)cc2)CCN(c2ncnc3[nH]ccc23)CC1 | 1030 ± 400
34 | COc1ccc(NS(=O)(=O)c2sc3ccc(Cl)cc3c2C)cc1N1CCNCC1 | 837 ± 360
35 | NC(=O)c1ccc(N(C(N)=O)c2c(F)cccc2F)nc1-c1ccc(F)cc1F | 821 ± 380
36 | CC[C@H]1[C@@H](O)[C@@H]2[C@H](CC[C@]3(C)[C@@H]([C@H](C)CCC(=O)O)CC[C@@H]23)[C@@]2(C)CC[C@@H](O)C[C@@H]12 | 1030 ± 270
37 | CN(C(=O)c1ccccc1)c1ccc(C(O)(C(F)(F)F)C(F)(F)F)cc1 | 202 ± 160
38 | O=C(O)/C=C/c1ccc(O)c(O)c1 | 786 ± 330
39 | O=C(c1ccc(C(=O)N2CCC(N3CCCC3)CC2)c(Nc2ccccc2)c1)N1CCC(N2CCCC2)CC1 | 790 ± 360
40 | CN1[C@@H](CC(=O)c2ccccc2)CCC[C@H]1C[C@H](O)c1ccccc1 | 855 ± 390
